Drawing on paper PMC3968024, this text covers binding for 2 molecules.

These are yes or no findings as the source states them, for the method shown. For some assays here: In cells and extracts the contact can be indirect. Some entries that bind do so weakly or less than the wild type. Where a sequence is shown, tags or fusion partners need not be part of it.

The target of test [1] is T1, HA-tagged UNC5A intracellular domain (HA-UNC5A^ICD) (human) (UniProt Q6ZN44).
T1 sequence: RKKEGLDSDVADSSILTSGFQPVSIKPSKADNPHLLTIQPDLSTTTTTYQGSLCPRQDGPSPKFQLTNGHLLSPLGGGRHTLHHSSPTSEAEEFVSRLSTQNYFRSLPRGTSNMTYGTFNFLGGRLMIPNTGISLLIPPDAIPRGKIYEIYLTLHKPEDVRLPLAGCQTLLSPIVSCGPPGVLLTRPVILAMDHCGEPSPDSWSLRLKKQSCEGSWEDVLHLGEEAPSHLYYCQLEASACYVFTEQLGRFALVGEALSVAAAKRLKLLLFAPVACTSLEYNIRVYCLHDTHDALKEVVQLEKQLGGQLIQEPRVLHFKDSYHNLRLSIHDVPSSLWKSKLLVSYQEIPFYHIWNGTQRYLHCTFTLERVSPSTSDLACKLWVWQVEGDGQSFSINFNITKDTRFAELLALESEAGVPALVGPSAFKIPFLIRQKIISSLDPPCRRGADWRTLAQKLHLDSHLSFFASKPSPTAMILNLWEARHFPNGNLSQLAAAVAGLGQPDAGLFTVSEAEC
Put plainly: co-IP; HEK293T transiently transfected with both proteins; lysis in 50 mM Tris-HCl, 150 mM NaCl, 1% Triton X-100; protein A-agarose beads; Western blotting; control IgG. (In general: Immunoblotting shows a protein as a band on a membrane.)

Test [2] addresses T2, FANCC N-terminal caspase cleavage fragment FANCC^1-306 (yeast two-hybrid fusion) (UniProt Q00597).
T2 sequence: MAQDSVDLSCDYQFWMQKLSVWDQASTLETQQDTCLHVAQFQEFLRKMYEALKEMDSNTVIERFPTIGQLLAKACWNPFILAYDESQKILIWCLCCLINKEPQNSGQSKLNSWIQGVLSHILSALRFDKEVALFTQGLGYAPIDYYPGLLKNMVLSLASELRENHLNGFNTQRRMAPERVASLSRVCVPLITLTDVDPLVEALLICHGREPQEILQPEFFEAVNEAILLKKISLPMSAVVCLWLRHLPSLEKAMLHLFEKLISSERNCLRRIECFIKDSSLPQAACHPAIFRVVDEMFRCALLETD
The experiment in a line: two-hybrid; directed assays; UNC5A and FANCC constructs in pGBKT7 or pGADT7 co-transformed into AH109; growth on stringent nutritional selection; at least three independent transformations.

B1: EGFP-tagged FANCC^1-306 (domain or fragment, UniProt Q00597 1-306)
chain: T2 sequence
As to B1, in test [1], the binding result is on record as “binds”.

B2: UNC5A intracellular domain UNC5A^ICD (yeast two-hybrid fusion) (domain or fragment, UniProt Q6ZN44 329-842)
chain: T1 sequence
In the case of B2, the binding entry in test [2] is recorded as “binds”.
